Source: PubChem BioAssay AID1159584 (Peter MacCallum Cancer Centre, 2016)
Assay: 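Knock-downs that harm CDH1-null cells more than parental MCF10A cells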 (primary screen). Cell system: human MCF10A breast epithelial cells, parental and CDH1-null. Reagents: siRNA against human genes. Read-out: 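Cell viability by CellTiter-Glo ATP luminescence, each line scaled to the mean of mock wells across plates, then CDH1-null over parental ratio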. Scale: CDH1-null / parental viability ratio: higher = CDH1-null cells survive relatively better than parental.
Shown is an unselected part of about 18,000 reagents. Further read-outs or replicates are left out here. Not given: the amount of reagent, the time to read-out.

MED25 → CDH1-null / parental viability ratio = 0.94
DGKE → CDH1-null / parental viability ratio = 0.87
LACTB → CDH1-null / parental viability ratio = 1.03
CAGE1 → CDH1-null / parental viability ratio = 1.1
GINS3 → CDH1-null / parental viability ratio = 1
GIPC1 → CDH1-null / parental viability ratio = 1.06
CCDC80 → CDH1-null / parental viability ratio = 0.98
CIMAP1D → CDH1-null / parental viability ratio = 1.08
MZT1 → CDH1-null / parental viability ratio = 1.04
ZNF597 → CDH1-null / parental viability ratio = 1.17
NGDN → CDH1-null / parental viability ratio = 1.07
NOVA2 → CDH1-null / parental viability ratio = 1.09
GMPS → CDH1-null / parental viability ratio = 1.14
SYNGAP1 → CDH1-null / parental viability ratio = 0.7
DOC2B → CDH1-null / parental viability ratio = 1
PSMA7 → CDH1-null / parental viability ratio = 1.44
ENSA → CDH1-null / parental viability ratio = 0.86
UBQLN3 → CDH1-null / parental viability ratio = 0.92
PGAM5 → CDH1-null / parental viability ratio = 1.06
UMOD → CDH1-null / parental viability ratio = 1.57
UNG → CDH1-null / parental viability ratio = 1.3
H1-3 → CDH1-null / parental viability ratio = 0.94
RALGAPA1 → CDH1-null / parental viability ratio = 1.46
MGST1 → CDH1-null / parental viability ratio = 0.92
